Data from patent US20040235173A1.
These are yes or no findings as the source states them, for the method shown. Some binding calls cover weakened binding; strength is not graded here.

Protein sequences, listed by entry. Tags and fused reporters are not part of them. Residues count along the entry.
UniProt P06731, residues 35-685: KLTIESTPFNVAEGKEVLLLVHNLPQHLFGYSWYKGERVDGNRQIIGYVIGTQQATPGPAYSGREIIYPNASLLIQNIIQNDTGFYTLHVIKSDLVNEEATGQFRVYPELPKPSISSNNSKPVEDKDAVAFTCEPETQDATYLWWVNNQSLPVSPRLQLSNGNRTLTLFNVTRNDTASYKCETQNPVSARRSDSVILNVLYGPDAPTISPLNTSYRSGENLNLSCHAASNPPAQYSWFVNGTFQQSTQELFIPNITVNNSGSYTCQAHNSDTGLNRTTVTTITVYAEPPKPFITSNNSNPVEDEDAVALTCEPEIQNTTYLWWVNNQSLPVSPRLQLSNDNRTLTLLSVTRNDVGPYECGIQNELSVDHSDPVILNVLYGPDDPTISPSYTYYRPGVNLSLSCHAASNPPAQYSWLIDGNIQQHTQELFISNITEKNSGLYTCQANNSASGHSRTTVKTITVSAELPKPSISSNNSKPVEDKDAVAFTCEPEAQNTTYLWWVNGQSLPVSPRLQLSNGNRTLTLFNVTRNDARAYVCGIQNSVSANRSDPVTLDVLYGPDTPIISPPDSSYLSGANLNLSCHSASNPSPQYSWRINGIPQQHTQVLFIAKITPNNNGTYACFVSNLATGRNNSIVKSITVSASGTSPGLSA

Molecular target: CEA (UniProt P06731)
Experiment: CEA binding ELISA of culture media from transduced cell lines

B1: MN14 antibody (antibody, V domains shown)
VH: EVQLVESGGGVVQPGRSLRLSCSASGFDFTTYWMSWVRQAPGKGLEWIGEIHPDSSTINYAPSLKDRFTISRDNAKNTLFLQMDSLRPEDTGVYFCASLYFGFPWFAYWGQGTPVTVSS
VL: DIQLTQSPSSLSASVGDRVTITCKASQDVGTSVAWYQQKPGKAPKLLIYWTSTRHTGVPSRFSGSGSGTDFTFTISSLQPEDIATYYCQQYSLYRSFGQGTKVEIKR
binding: binds
